Results as given in patent US20130019345A1 (NATIONAL UNIVERSITY CORPORATION NARA INSTITUTE OF SCIENCE …, published 2013).
No constants are given. Whether binding was seen depends on the method and setting. Binding seen in cells or lysates may run through a third protein. Some results given as binding are weak or reduced against the parent protein; the word gives no strength. Sequences can lack the tags named with a protein.

Biological target: T1, GST-fused GF14c protein (full-length GF14c, residues 1 to 256) (rice) (UniProt Q6ZKC0)
T1 sequence: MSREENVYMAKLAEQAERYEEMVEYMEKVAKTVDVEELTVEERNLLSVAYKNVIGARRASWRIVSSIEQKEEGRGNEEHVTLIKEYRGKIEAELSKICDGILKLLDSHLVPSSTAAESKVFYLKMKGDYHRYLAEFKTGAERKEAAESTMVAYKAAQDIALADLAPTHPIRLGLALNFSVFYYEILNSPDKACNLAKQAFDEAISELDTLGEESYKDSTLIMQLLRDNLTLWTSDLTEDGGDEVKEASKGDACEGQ
Assay: in vitro GST pull-down, GST-GF14c on glutathione resin, SDS-PAGE

binding: binds
Binder: ARVNNLETEVEQLKQENKMLRVKYEQLRKTVEVPVPVRRTLQRVLEAPF (other)
